No constants are given. Whether binding was seen depends on the method and setting. In cells and extracts the contact can be indirect. Some binding calls cover weakened binding; strength is not graded here.
T1: Insulin receptor substrate 4 (human (endogenous in HEK 293T)) (UniProt O14654)
T1 sequence: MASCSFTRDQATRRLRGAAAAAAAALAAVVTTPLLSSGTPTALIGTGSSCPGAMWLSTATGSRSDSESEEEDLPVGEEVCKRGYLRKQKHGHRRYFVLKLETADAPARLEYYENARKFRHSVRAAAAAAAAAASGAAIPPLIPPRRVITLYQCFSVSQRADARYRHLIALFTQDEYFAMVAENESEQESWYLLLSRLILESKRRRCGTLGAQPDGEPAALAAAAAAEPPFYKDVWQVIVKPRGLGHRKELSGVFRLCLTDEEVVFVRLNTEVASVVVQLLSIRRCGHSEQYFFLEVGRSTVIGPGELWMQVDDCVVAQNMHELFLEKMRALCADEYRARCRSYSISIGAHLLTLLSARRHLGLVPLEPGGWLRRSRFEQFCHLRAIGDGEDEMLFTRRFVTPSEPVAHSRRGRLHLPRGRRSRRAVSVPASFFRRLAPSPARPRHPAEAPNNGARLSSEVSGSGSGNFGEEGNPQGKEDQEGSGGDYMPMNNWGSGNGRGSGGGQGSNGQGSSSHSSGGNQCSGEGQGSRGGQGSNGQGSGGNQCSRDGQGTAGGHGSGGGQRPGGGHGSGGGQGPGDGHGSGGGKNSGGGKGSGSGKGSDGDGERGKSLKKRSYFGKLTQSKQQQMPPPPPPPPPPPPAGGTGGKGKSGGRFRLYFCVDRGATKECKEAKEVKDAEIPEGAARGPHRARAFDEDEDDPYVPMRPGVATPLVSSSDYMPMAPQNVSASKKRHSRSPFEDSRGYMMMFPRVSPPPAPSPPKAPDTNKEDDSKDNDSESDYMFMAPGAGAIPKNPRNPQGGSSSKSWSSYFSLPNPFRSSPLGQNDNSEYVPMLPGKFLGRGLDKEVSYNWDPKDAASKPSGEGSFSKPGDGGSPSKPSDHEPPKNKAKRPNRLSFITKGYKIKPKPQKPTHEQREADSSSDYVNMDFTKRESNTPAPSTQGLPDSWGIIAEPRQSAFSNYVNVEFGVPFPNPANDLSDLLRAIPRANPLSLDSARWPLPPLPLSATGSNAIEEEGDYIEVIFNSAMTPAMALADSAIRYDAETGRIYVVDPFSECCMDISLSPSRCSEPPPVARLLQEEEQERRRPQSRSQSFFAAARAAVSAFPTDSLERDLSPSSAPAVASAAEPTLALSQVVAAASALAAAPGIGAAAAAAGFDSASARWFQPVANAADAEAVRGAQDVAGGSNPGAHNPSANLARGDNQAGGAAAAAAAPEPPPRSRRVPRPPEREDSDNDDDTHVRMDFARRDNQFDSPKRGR

By UniProt entry, the sequences of proteins in these tests, tags left out.
UniProt Q12929: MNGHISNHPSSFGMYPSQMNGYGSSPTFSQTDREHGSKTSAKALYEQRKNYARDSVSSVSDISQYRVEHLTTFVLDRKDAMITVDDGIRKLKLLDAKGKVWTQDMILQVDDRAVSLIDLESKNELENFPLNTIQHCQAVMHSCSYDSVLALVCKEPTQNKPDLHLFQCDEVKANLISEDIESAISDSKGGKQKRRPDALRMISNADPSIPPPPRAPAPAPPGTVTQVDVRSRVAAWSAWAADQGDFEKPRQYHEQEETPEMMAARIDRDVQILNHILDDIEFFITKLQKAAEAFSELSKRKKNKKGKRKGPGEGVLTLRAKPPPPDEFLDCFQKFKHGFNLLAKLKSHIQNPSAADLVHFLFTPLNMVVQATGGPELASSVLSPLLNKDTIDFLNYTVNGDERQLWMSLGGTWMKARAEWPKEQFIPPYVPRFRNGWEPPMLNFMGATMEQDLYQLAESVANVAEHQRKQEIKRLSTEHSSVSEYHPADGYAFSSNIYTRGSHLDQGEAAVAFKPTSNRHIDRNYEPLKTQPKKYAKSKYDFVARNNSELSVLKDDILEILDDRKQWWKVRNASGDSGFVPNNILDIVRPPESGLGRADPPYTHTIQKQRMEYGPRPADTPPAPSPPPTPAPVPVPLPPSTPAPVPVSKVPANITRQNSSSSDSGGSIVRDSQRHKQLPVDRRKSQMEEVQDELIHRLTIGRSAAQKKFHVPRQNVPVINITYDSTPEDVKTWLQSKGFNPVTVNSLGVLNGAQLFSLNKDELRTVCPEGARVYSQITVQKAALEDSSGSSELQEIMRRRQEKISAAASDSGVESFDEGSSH


Assays:
[1] = target: T1, Insulin receptor substrate 4 (human (endogenous in HEK 293T)); experiment: co-IP; endogenous proteins; endogenous IRS4 immunoprecipitated from HEK293T cells stimulated with 20 ng/ml FGF2 for 15 min, without inhibitor or after 30 min dasatinib; Western blot
[2] = target: T1, Insulin receptor substrate 4 (human (endogenous in HEK 293T)); experiment: condition: only cells in which the FGF receptor is not active (no FGF2, or SU5402 before FGF2); co-IP; endogenous proteins; endogenous IRS4 immunoprecipitated from HEK293T cells in which the FGF receptor was not active (no FGF2, or 30 min SU5402 before FGF2); Western blot
[3] = target: Myc-Eps8 (human) (UniProt Q12929); experiment: co-IP; anti-Myc (9E10) on Protein G Dynabeads, whole cell lysate mixed at 4°C for 30 min; HEK 293T cells transfected with Myc-Eps8, 20 ng/ml FGF2 for 15 min; Western blot of endogenous partners; in Figure 6A also without FGF2 and after 30 min pre-treatment with SU5402 or dasatinib

binding [1] | binding [2] | binding [3] | Molecule
binds | no binding | – | Eps8 (endogenous) (from UniProt Q12929 1-822)
– | – | binds | Vav2 (protein, UniProt P52735 1-878) MEQWRQCGRWLIDCKVLPPNHRVVWPSAVVFDLAQALRDGVLLCQLLHNLSPGSIDLKDINFRPQMSQFLCLKNIRTFLKVCHDKFGLRNSELFDPFDLFDVRDFGKVISAVSRLSLHSIAQNKGIRPFPSEETTENDDDVYRSLEELADEHDLGEDIYDCVPCEDGGDDIYEDIIKVEVQQPMIRYMQKMGMTEDDKRNCCLLEIQETEAKYYRTLEDIEKNYMSPLRLVLSPADMAAVFINLEDLIKVHHSFLRAIDVSVMVGGSTLAKVFLDFKERLLIYGEYCSHMEHAQNTLNQLLASREDFRQKVEECTLKVQDGKFKLQDLLVVPMQRVLKYHLLLKELLSHSAERPERQQLKEALEAMQDLAMYINEVKRDKETLRKISEFQSSIENLQVKLEEFGRPKIDGELKVRSIVNHTKQDRYLFLFDKVVIVCKRKGYSYELKEIIELLFHKMTDDPMNNKDVKKSHGKMWSYGFYLIHLQGKQGFQFFCKTEDMKRKWMEQFEMAMSNIKPDKANANHHSFQMYTFDKTTNCKACKMFLRGTFYQGYMCTKCGVGAHKECLEVIPPCKFTSPADLDASGAGPGPKMVAMQNYHGNPAPPGKPVLTFQTGDVLELLRGDPESPWWEGRLVQTRKSGYFPSSSVKPCPVDGRPPISRPPSREIDYTAYPWFAGNMERQQTDNLLKSHASGTYLIRERPAEAERFAISIKFNDEVKHIKVVEKDNWIHITEAKKFDSLLELVEYYQCHSLKESFKQLDTTLKYPYKSRERSASRASSRSPASCASYNFSFLSPQGLSFASQGPSAPFWSVFTPRVIGTAVARYNFAARDMRELSLREGDVVRIYSRIGGDQGWWKGETNGRIGWFPSTYVEEEGIQ
